{"source": "the supplement of paper PMC10398353", "note": "Several values for one entry are separate records, joined by “and”; a condition that tells them apart may be missing. Identical values can stand only once. Counter-ions that a name gives are not always drawn. ± gives the standard deviation of the averaged measurements. The list shows a part of the results. Single values of this set are uncertain.", "data": [{"tested_on": "Salmonella enterica serovar Typhimurium ST313 D23580", "assay": "normalized bacterial growth (OD600 20 h minus 0 h, interquartile-mean normalized) (fraction of plate interquartile mean); higher = more bacterial growth (less inhibition)", "conditions": "LPM (pH 5.8, low phosphate, low Mg2+), concentration: 10 µM, temperature: 37 °C", "values": [{"smiles": "COc1cc([S+](C)[O-])ccc1-c1nc2cccnc2[nH]1", "note": "(stereo unspecified) [Sulmazole]", "normalized bacterial growth": 1.14}, {"smiles": "O=c1ccc2cc(O)c(O)cc2o1", "normalized bacterial growth": 0.945}, {"smiles": "C[C@H](CCC(=O)O)[C@H]1CC[C@H]2[C@@H]3[C@H](O)C[C@@H]4C[C@H](O)CC[C@]4(C)[C@H]3C[C@H](O)[C@]12C", "normalized bacterial growth": 0.838}, {"smiles": "CC(=O)OC1CCC2(C)C(=CCC3C2CCC2(C)C(C(C)CCCC(C)C)CCC32)C1", "note": "(stereo unspecified)", "normalized bacterial growth": 1.15}, {"smiles": "O=C(OCC(O)CO)c1ccccc1Nc1ccnc2cc(Cl)ccc12", "note": "(stereo unspecified) [Glafenine hydrochloride]", "normalized bacterial growth": 0.904}, {"smiles": "O=C(OCC(O)CO)c1ccccc1Nc1ccnc2cc(Cl)ccc12", "note": "(stereo unspecified)", "normalized bacterial growth": 0.987}, {"smiles": "CC(C(=O)O)c1ccc(-c2ccccc2)c(F)c1", "note": "(stereo unspecified)", "normalized bacterial growth": 0.567}, {"smiles": "Cc1cc(O)c2c(c1)C(=O)c1cccc(O)c1C2=O", "normalized bacterial growth": 0.781}, {"smiles": "NC(=O)c1cn(Cc2c(F)cccc2F)nn1", "note": "[Rufinamide]", "normalized bacterial growth": 1.1}, {"smiles": "CC[N+](CC)(CC)CCOc1ccc(/C=C/c2ccccc2)cc1", "normalized bacterial growth": 0.859}, {"smiles": "Nc1nc2[nH]cnc2c(=S)[nH]1", "normalized bacterial growth": 0.51}, {"smiles": "C/C1=C2/[N-][C@H]([C@H](CC(N)=O)[C@@]2(C)CCC(=O)NC[C@@H](C)OP(=O)([O-])O[C@H]2[C@@H](O)[C@@H](n3cnc4cc(C)c(C)cc43)O[C@@H]2CO)[C@]2(C)N=C(/C(C)=C3N=C(/C=C4N=C1[C@@H](CCC(N)=O)C\\4(C)C)[C@@H](CCC(N)=O)[C@]\\3(C)CC(N)=O)[C@@H](CCC(N)=O)[C@]2(C)CC(N)=O.[CH2-][C@H]1O[C@H](n2cnc3c(N)ncnc32)[C@@H](O)[C@H]1O.[Co+3]", "normalized bacterial growth": 0.954}, {"smiles": "CC(Oc1ccc(Oc2cnc3ccc(Cl)cc3n2)cc1)C(=O)O", "note": "(stereo unspecified)", "normalized bacterial growth": 1.17}, {"smiles": "CN(C)C(=O)C(CCN1CCC(O)(c2ccc(Cl)cc2)CC1)(c1ccccc1)c1ccccc1", "note": "[Loperamide hydrochloride]", "normalized bacterial growth": 0.927}, {"smiles": "CC(C(=O)O)c1ccc2c(c1)[nH]c1ccc(Cl)cc12", "note": "(stereo unspecified)", "normalized bacterial growth": 1.03}, {"smiles": "CCCCc1cc2ccccc2c(OCCN(C)C)n1", "note": "[Dimethisoquin hydrochloride]", "normalized bacterial growth": 0.74}, {"smiles": "Cc1cccc(C)c1NC(=O)C(C)N", "note": "(stereo unspecified) [Tocainide hydrochloride]", "normalized bacterial growth": 1.01}, {"smiles": "O=C(O)C1CCCNC1", "note": "(stereo unspecified) [()-Nipecotic acid]", "normalized bacterial growth": 1.19}, {"smiles": "O=C1c2c(O)cccc2C([C@@H]2O[C@H](CO)[C@@H](O)[C@H](O)[C@H]2O)c2cc(CO)cc(O)c21", "note": "(stereo partly specified)", "normalized bacterial growth": 1.51}, {"smiles": "Cc1c(-c2ccccc2)oc2c(C(=O)OCCN3CCCCC3)cccc2c1=O", "note": "[Flavoxate hydrochloride]", "normalized bacterial growth": 0.811}, {"smiles": "CC(=O)Oc1cc(OC(C)=O)c2c(c1)O[C@H](c1ccc(OC(C)=O)c(OC(C)=O)c1)[C@@H](OC(C)=O)C2", "normalized bacterial growth": 0.932}, {"smiles": "CC(C)CCC[C@@H](C)[C@H]1CC[C@H]2[C@@H]3CC(=O)[C@H]4C[C@@H](O)CC[C@]4(C)[C@H]3CC[C@]12C", "note": "[5alpha-CHOLESTAN-3beta-OL-6-ONE]", "normalized bacterial growth": 1.15}, {"smiles": "CCCCCCCCCCCCCCCCCCCCCCO", "normalized bacterial growth": 0.643}, {"smiles": "OC[C@H]1NC[C@H](O)[C@@H](O)[C@@H]1O", "note": "[1-Deoxynojirimycin hydrochloride]", "normalized bacterial growth": 0.967}, {"smiles": "CC12CCC(CC1=O)C2(C)C", "note": "(stereo unspecified)", "normalized bacterial growth": 1.24}, {"smiles": "C[C@@H]1NC(=O)[C@@H](N)CNC(=O)[C@H](C2CCNC(=N)N2)NC(=O)/C(=C/NC(N)=O)NC(=O)[C@H](CNC(=O)CC(N)CCCN)NC1=O.N=C1NCC[C@H]([C@@H]2NC(=O)/C(=C/NC(N)=O)NC(=O)[C@H](CNC(=O)C[C@@H](N)CCCN)NC(=O)[C@H](CO)NC(=O)[C@@H](N)CNC2=O)N1", "normalized bacterial growth": "1.07 and 0.988"}, {"smiles": "CN[C@@H]1[C@@H](O[C@H]2O[C@H](CO)[C@@H](N)[C@H](O)[C@H]2O)OC2C[C@@H](N)[C@@H](O[C@H]3[C@H](O)[C@@H](O)[C@H](N)C[C@@H]3N)OC2[C@@H]1O", "note": "(stereo partly specified)", "normalized bacterial growth": 1.22}, {"smiles": "C=C[C@@](C)(O)CCC1C(=C)CCC2[C@@](C)(CO)CCC[C@]12C", "note": "(stereo partly specified)", "normalized bacterial growth": 1}, {"smiles": "CC1(C)O[C@H]2CC(=O)OC[C@]23[C@H]2CC[C@@]4(C)[C@H](c5ccoc5)OC(=O)[C@H]5O[C@]54[C@]2(C)C(=O)C[C@@H]13", "normalized bacterial growth": "1 ± 0.058"}, {"smiles": "Cc1onc(-c2ccccc2Cl)c1C(=O)N[C@@H]1C(=O)N2[C@@H]1SC(C)(C)[C@@H]2C(=O)O", "normalized bacterial growth": 1.01}, {"smiles": "Cn1c(=O)c2[nH]c(-c3ccccc3)nc2n(C)c1=O", "note": "[\"1,3-Dimethyl-8-phenylxanthine\"]", "normalized bacterial growth": 1.13}, {"smiles": "CC(=O)O[C@@H]1CC2C(C)(C)CCC(=O)[C@]2(C)C2CC[C@@]3(C)[C@H](c4ccoc4)OC(=O)C4OC43[C@@]21C", "note": "(stereo partly specified)", "normalized bacterial growth": 0.767}, {"smiles": "COC(=O)C1=CO[C@@H](O[C@@H]2O[C@H](CO)[C@@H](O)[C@H](O)[C@H]2O)[C@@H]2C(CO)=CC[C@H]12", "normalized bacterial growth": 0.983}, {"smiles": "NS(=O)(=O)c1cc2c(cc1Cl)NC(C(Cl)Cl)NS2(=O)=O", "note": "(stereo unspecified)", "normalized bacterial growth": 1.05}, {"smiles": "CN1CCN(C2Cc3ccccc3Sc3ccc(Cl)cc32)CC1", "note": "(stereo unspecified) [()-Octoclothepin maleate]", "normalized bacterial growth": 0.857}, {"smiles": "CN[C@@H]1[C@H](O)[C@H](NC)[C@H]2O[C@@]3(O)C(=O)C[C@@H](C)O[C@H]3O[C@@H]2[C@H]1O", "normalized bacterial growth": "0.795 and 0.912"}, {"smiles": "CN[C@H](CC(=O)O)C(=O)O", "note": "[N-Methyl-D-aspartic acid]", "normalized bacterial growth": 0.799}, {"smiles": "O=C1C[C@@H](c2ccc(O)c(O)c2)Oc2cc(O)cc(O)c21", "normalized bacterial growth": 0.567}, {"smiles": "Nc1ccccc1S(N)(=O)=O", "note": "[2-Aminobenzenesulfonamide]", "normalized bacterial growth": 1.27}, {"smiles": "CC1=CC(=O)C(C(C)C)=CC1=O", "normalized bacterial growth": 1.02}, {"smiles": "OCc1cccnc1", "normalized bacterial growth": 1.27}, {"smiles": "O=Cc1ccccc1O[C@@H]1O[C@H](CO)[C@@H](O)[C@H](O)[C@H]1O", "normalized bacterial growth": 1.21}, {"smiles": "COC(=O)C(Cc1ccccc1)NC(=O)/C(=C1/OC(=O)C(c2ccccc2)=C1O)c1ccccc1", "note": "(stereo unspecified)", "normalized bacterial growth": 1.13}, {"smiles": "CCN(c1nc(N)c(C(=O)NC(=N)N)nc1Cl)C(C)C", "note": "[5-(N-Ethyl-N-isopropyl)amiloride]", "normalized bacterial growth": 0.594}, {"smiles": "O=C(O)Cc1c[nH]c2ccc(O)cc12", "note": "[5-Hydroxyindolacetic acid]", "normalized bacterial growth": 1.67}, {"smiles": "CN(C)CCC=C1c2ccccc2COc2ccccc21", "normalized bacterial growth": 0.846}, {"smiles": "CN(C)CCC=C1c2ccccc2COc2ccccc21", "note": "[Doxepin hydrochloride]", "normalized bacterial growth": 0.613}, {"smiles": "CC(C)[N+](C)(CCOC(=O)C1c2ccccc2Oc2ccccc21)C(C)C", "note": "[Propantheline bromide]", "normalized bacterial growth": 0.87}, {"smiles": "CN1CCC[C@@H]1Cc1c[nH]c2ccc(CCS(=O)(=O)c3ccccc3)cc12", "normalized bacterial growth": 1}, {"smiles": "C[n+]1c2cc(N)ccc2cc2ccc(N)cc21", "normalized bacterial growth": 0.912}, {"smiles": "COc1ccc(-c2coc3cc(OC)ccc3c2=O)cc1", "normalized bacterial growth": 0.589}, {"smiles": "O=C(N[C@H](CO)[C@H](O)c1ccc([N+](=O)[O-])cc1)C(Cl)Cl", "normalized bacterial growth": 0.986}, {"smiles": "O=C(N[C@H](CO)[C@H](O)c1ccc([N+](=O)[O-])cc1)C(Cl)Cl", "note": "[Chloramphenicol]", "normalized bacterial growth": 1.23}, {"smiles": "O=C(O)CCNC(=O)c1ccccc1", "normalized bacterial growth": 1.26}, {"smiles": "CCC[C@@H]1C[C@@H](C(=O)N[C@@H]([C@H]2O[C@H](SC)[C@H](O)[C@@H](O)[C@H]2O)[C@H](C)Cl)N(C)C1", "normalized bacterial growth": 0.561}, {"smiles": "CCN(CC)CCOC(=O)c1cc(Cl)c(N)cc1OC", "note": "[\"SDZ-205,557 hydrochloride\"]", "normalized bacterial growth": 0.951}, {"smiles": "NC/C=C/C(=O)O", "note": "[(E)-4-amino-2-butenoic acid]", "normalized bacterial growth": 1.14}, {"smiles": "CC(=O)N[C@@H](Cc1c[nH]c2ccccc12)C(=O)OCc1cc(C(F)(F)F)cc(C(F)(F)F)c1", "normalized bacterial growth": 0.595}, {"smiles": "Cc1ccc2c(c1)c1c3n2CCNC3CCC1", "note": "(stereo unspecified) [Pirlindole mesylate]", "normalized bacterial growth": 0.65}, {"smiles": "CCN(CC)CCNC(=O)c1cc(Cl)c(N)cc1OC", "note": "[Metoclopramide hydrochloride]", "normalized bacterial growth": 0.992}, {"smiles": "NCCCNCCCCNCCCN", "note": "[Spermine tetrahydrochloride]", "normalized bacterial growth": 0.811}, {"smiles": "NCCCNCCCCNCCCN", "normalized bacterial growth": 0.541}, {"smiles": "COc1ccc(-c2oc3cc(OC)c(OC)c(OC)c3c(=O)c2OC)cc1", "normalized bacterial growth": 0.862}, {"smiles": "CN(C)C/C=C(/c1ccc(Br)cc1)c1cccnc1", "note": "[Zimelidine dihydrochloride monohydrate]", "normalized bacterial growth": 1.02}, {"smiles": "CN(C)C/C=C(/c1ccc(Br)cc1)c1cccnc1", "note": "[Zimelidine dihydrochloride]", "normalized bacterial growth": 1.14}, {"smiles": "CC(C)(CO)C(O)C(=O)NCCCO", "note": "(stereo unspecified)", "normalized bacterial growth": 1.07}, {"smiles": "CCOc1ccc2ccccc2c1C(=O)N[C@@H]1C(=O)N2[C@@H]1SC(C)(C)[C@@H]2C(=O)O", "normalized bacterial growth": 1.1}, {"smiles": "CCOc1ccc2ccccc2c1C(=O)N[C@@H]1C(=O)N2[C@@H]1SC(C)(C)[C@@H]2C(=O)O", "note": "[Nafcillin sodium salt monohydrate]", "normalized bacterial growth": 0.632}, {"smiles": "Cn1cnc2c1c(=O)[nH]c(=O)n2C", "normalized bacterial growth": 1.1}, {"smiles": "N#C/C(=C\\c1c[nH]c2ccccc12)C(=O)c1ccc(O)c(O)c1", "note": "[Tyrphostin AG 808]", "normalized bacterial growth": 1.2}, {"smiles": "CC(C)c1c(O)c(-c2cc3c(c(C(C)C)c2O)CCC2C(C)(C)CCC[C@]32C)cc2c1CCC1C(C)(C)CCC[C@]21C", "note": "(stereo partly specified)", "normalized bacterial growth": 1.25}, {"smiles": "C1CCC(C(CC2CCCCN2)C2CCCCC2)CC1", "note": "(stereo unspecified)", "normalized bacterial growth": 0.933}, {"smiles": "CN1CC(=O)N2[C@H](c3ccc4c(c3)OCO4)c3[nH]c4ccccc4c3C[C@@H]2C1=O", "normalized bacterial growth": 0.617}, {"smiles": "CC(C)NCC(O)COc1ccc(CCOCC2CC2)cc1", "note": "(stereo unspecified) [Betaxolol hydrochloride]", "normalized bacterial growth": 1.02}, {"smiles": "CC(=O)[C@@]1(O)CC[C@H]2[C@@H]3C[C@H](C)C4=CC(=O)C=C[C@]4(C)[C@@]3(F)[C@@H](O)C[C@@]21C", "normalized bacterial growth": 0.697}, {"smiles": "CC(=O)[C@@]1(O)CC[C@H]2[C@@H]3C[C@H](C)C4=CC(=O)C=C[C@]4(C)[C@@]3(F)[C@@H](O)C[C@@]21C", "note": "[Fluorometholone]", "normalized bacterial growth": 0.942}, {"smiles": "CCc1nc(N)nc(N)c1-c1ccc(Cl)cc1", "normalized bacterial growth": 0.837}, {"smiles": "COC(=O)CCCOc1ccc(Cl)cc1Cl", "normalized bacterial growth": 0.961}, {"smiles": "COc1cccc2oc(-c3ccccc3)cc(=O)c12", "normalized bacterial growth": 0.964}, {"smiles": "COc1ccc2c(c1)OC/C(=C/c1ccc(OC)c(OC)c1)C2=O", "normalized bacterial growth": 0.755}, {"smiles": "O=C(O)C1CC([C@@H]2CCCCN2)CN2CCCCC12", "note": "(stereo partly specified)", "normalized bacterial growth": 1.08}]}]}
